Hit rate of the full screen: of about 350,000 compounds, about 6,000 (1.7%) were called active. Inconclusive means that the source gave no clear call. Such entries were picked first, then a sample of the others. Rule as the data show it: active = CPE inhibition above about 20% (passing the limit was not always enough); inconclusive = no clear call, values can overlap the other calls; tested in BHK-21 cells.
Assay: protection of cells from dengue 2 killing – plate reader, single concentration, primary screen (AID 651640);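 also: 0% = median of neutral control wells and 100% = median of positive control wells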
Details: DENV2-infected cells, cytopathic effect rescue, at 9.99 µM, stronger effect = higher value

Compound | CPE inhibition
CCOC(=O)[C@@H]1[C@H]2COc3ccccc3[C@@H]2N2C(=O)N(c3ccc(C(F)(F)F)cc3)C(=O)[C@@]12C | inconclusive: 35.7%
CN(C)S(=O)(=O)c1ccc(NC=C(C#N)C#N)cc1 | inactive: 0.11%
CCOc1ccc(CCN2C(=O)C(=O)N([C@@H](Cc3ccc(O)cc3)CN3CCC[C@H]3CN3C(=O)C(=O)NC[C@@H]3Cc3ccc(O)cc3)C[C@@H]2Cc2ccccc2)cc1 | inconclusive: 28.3%
N#C[C@H]1[C@@H](c2ccc(-c3cccc(F)c3)cc2)[C@H](CO)N1C(=O)c1cccnc1 | inconclusive: 33.9%
CN(C)S(=O)(=O)c1ccc(N2CCCC2)c(C(=O)NNC(=O)c2ccc(F)cc2)c1 | inconclusive: 21.7%
COc1ccc(CC(=O)NNC(=O)c2ccccn2)cc1 | inactive: -4.21%
O=C(C[C@H]1CC[C@H](NS(=O)(=O)c2ccc(F)cc2)[C@@H](CO)O1)N1CCC(Cc2ccccc2)CC1 | inconclusive: 43.7%
CCN(CC(=O)N1CCCC1)S(=O)(=O)c1ccc2ccccc2c1 | inconclusive: 23.7%
O=[N+]([O-])c1cccnc1S(=O)(=O)c1ccccc1 | inactive: -4.86%
C/C(=N/NS(=O)(=O)c1cc(C)ccc1C)c1ccncc1 | inconclusive: 50.2%
COCC(=O)N1[C@H](CO)[C@H]2c3ccccc3N(C(=O)c3ccccc3F)C[C@H]21 | inconclusive: 72.3%
CN(C)Cc1c(O)ccc2c(=O)c(-c3ccccc3)c(C(F)(F)F)oc12 | inactive: 4.31%
Cc1c(Cl)cccc1NC(=O)CCN1CCN(C)CC1 | inconclusive: 20.2%
O=C(CC(=O)Nc1nc(C23CC4CC(CC(C4)C2)C3)cs1)NCCO | inactive: 15.8%
Cc1ccc(OCCCCNC(C)c2ccccc2)c(C)c1 (centres undefined) | active: 28.6%
CCc1ccc2nc(SCC(=O)Nc3ccccc3N3CCOCC3)c(C#N)cc2c1 | inactive: -5.4%
CN(C)C(=O)C[C@@H]1CC[C@@H]2[C@@H](COc3ccc(NC(=O)Nc4cccc(Cl)c4)cc3C(=O)N2C)O1 | inactive: 1.31%
C=CCn1c(C)nnc1SCC(=O)NC1CC1 | active: 93.5%
COc1cccc(CNC(=O)C[C@H]2CC[C@H]3[C@@H](COc4ccc(NC(C)=O)cc4C(=O)N3C)O2)c1 | active: 28.1%
CCOC(=O)C1(CC2CCCCO2)CCN(C(=O)Nc2ccc(C(=O)OC)cc2)CC1 (centres undefined) | inactive: -3.03%
CCOC(=O)COc1ccc(Br)cc1/C=C1\SC(N)=NC1=O | active: 37.5%
CCCn1c(C)cs/c1=N\C(=S)Nc1ccccc1 | inconclusive: 27.4%
CSc1ccc(CN(C)C(=O)C(c2ccccc2)c2ccccc2)cc1 | inactive: -3.61%
CCCN(C)C[C@H]1OCCCC[C@H](C)Oc2ccc(NS(=O)(=O)c3ccc(OC)cc3)cc2C(=O)N([C@H](C)CO)C[C@H]1C | inconclusive: 49.3%
COc1cc(/C=N/Nc2nc(=O)[nH]nc2C)cc(OC)c1O | inactive: -1.74%

Compound | CPE inhibition
O=C(Nc1nc(-c2ccc(F)cc2)cs1)c1cccc(N2C(=O)CCC2=O)c1 | inconclusive: 22.2%
O=CNc1cc(-c2ccc(C(=O)NC3CC3)cc2)cn2c(-c3ccccc3)cnc12 | inconclusive: 61.4%
C[C@@H]1CCCCO[C@H](CN(C)Cc2ccncc2)[C@@H](C)CN([C@@H](C)CO)C(=O)c2cc(NC(=O)Nc3ccc(F)cc3)ccc2O1 | inconclusive: 23.3%
CCOC(CNC(=O)C(=O)Nc1cc2c3c(c1)CC(=O)N3CCC2)OCC | inconclusive: 42%
COc1ccc(/C=N\NC(=O)c2ccccc2Br)cc1COc1ccc(F)cc1 | inconclusive: 55.3%
O=C(C1CC(=O)N(c2ccc3c(c2)OCCO3)C1)N1CCN(S(=O)(=O)c2ccccc2F)CC1 (centres undefined) | inconclusive: 51.4%
C=CCN1C(=O)c2ccc(C(=O)N(CC)CC(=O)Nc3c(F)cccc3F)cc2C1=O | inconclusive: 27.1%
COC(=O)c1ccc(CNC(=O)C2CCC(=O)N(C3CCCCCC3)C2)cc1 (centres undefined) | inconclusive: 31.2%
C[C@@H]1CCCCO[C@H](CN(C)C)[C@@H](C)CN([C@@H](C)CO)C(=O)c2cc(NC(=O)Cc3ccccc3)ccc2O1 | inconclusive: 37.9%
O=C(C1CCC1)N1CC(=O)N2[C@@H](CO)[C@@H](c3ccc(C#CCc4ccccc4)cc3)[C@@H]2C1 | inactive: -5.19%
COc1ccccc1CN1C[C@@H](C)[C@@H](OC)CN(C)C(=O)c2ccc(NC(C)=O)cc2OC[C@@H]1C | inactive: 19.2%
C[C@@H]1CCCCO[C@@H](CN(C)C(=O)NC2CCCCC2)[C@@H](C)CN([C@H](C)CO)C(=O)c2cc(NC(=O)Nc3ccc(C(F)(F)F)cc3)ccc2O1 | inconclusive: 23.4%
Cc1ccsc1C(=O)NC1CCCN(Cc2ccc(Cl)cc2)C1 (centres undefined) | inconclusive: 32.3%
CC1(C)CN(c2ccc(Br)cc2Br)C1=O | inconclusive: 21.8%
CCOc1ccc(C(=O)COC(=O)Cn2[nH]c(=O)c3ccccc3c2=O)cc1 | inconclusive: 24.3%
Cc1cc(Cl)ccc1NC(=S)NCCCO | inconclusive: 20.6%
COc1ccc(S(=O)(=O)n2nc(-c3ccc(Cl)cc3)cc2N)cc1 | inactive: -6.14%
CCCCCCCC(=O)O | inconclusive: 59.3%
Cc1cccc(N2CCN(C(=O)c3ccc4[nH]c(C)c(C)c4c3)CC2)c1C | inactive: -5.74%
CCS(=O)(=O)N1CC(=O)N2[C@H](CO)[C@@H](c3ccc(C#CCC(C)C)cc3)[C@@H]2C1 | active: 47.7%
CC(=O)ON=C1C=CC(=C(C#N)c2ccccc2)C=C1 | inconclusive: 42.3%
CN(C)c1ccc(-c2ccnc3c2CC(C)(C(=O)Nc2ccc(F)c(Cl)c2)O3)cc1 (centres undefined) | inconclusive: 28.2%
C[C@@H]1CN([C@@H](C)CO)C(=O)c2cc(NC(=O)NC3CCCCC3)ccc2O[C@@H]1CN(C)CC1CCCCC1 | active: 60.5%
CCN1[C@@H]2c3ccc(-c4ccccc4)c(=O)n3C[C@H]1[C@H](CO)[C@H]2C(=O)NCCCN1CCOCC1 | inconclusive: 35.3%

An excerpt taken from the entries so far:
Compound | CPE inhibition
CC(=O)ON=C1C=CC(=C(C#N)c2ccccc2)C=C1 | inconclusive: 42.3%
CN(C)c1ccc(-c2ccnc3c2CC(C)(C(=O)Nc2ccc(F)c(Cl)c2)O3)cc1 (centres undefined) | inconclusive: 28.2%
